Test results published in patent US20180371091A1 (JOUNCE THERAPEUTICS, published 2018).
No constants are given. Whether binding was seen depends on the method and setting. Some results given as binding are weak or reduced against the parent protein; the word gives no strength. For some of these results: Where a sequence is shown, tags or fusion partners need not be part of it.

T1: cynomolgus ICOS-Fc (homodimeric, bivalent) (cynomolgus monkey)
T1 sequence: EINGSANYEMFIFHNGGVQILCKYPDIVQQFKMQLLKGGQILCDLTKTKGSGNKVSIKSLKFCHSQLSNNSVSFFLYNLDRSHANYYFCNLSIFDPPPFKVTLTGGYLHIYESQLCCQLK

T2: rat ICOS-Fc (rat) (UniProt Q9R1T7)
T2 sequence: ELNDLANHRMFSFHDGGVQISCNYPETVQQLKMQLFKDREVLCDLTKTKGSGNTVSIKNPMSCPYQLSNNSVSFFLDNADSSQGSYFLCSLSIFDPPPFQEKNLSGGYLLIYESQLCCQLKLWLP

T3: mouse ICOS (full length, on cells) (mouse, UniProt Q9WVS0 21-200)
T3 construct: also called CHO-mICOS; mouse ICOS+ CHO cells
T3 sequence: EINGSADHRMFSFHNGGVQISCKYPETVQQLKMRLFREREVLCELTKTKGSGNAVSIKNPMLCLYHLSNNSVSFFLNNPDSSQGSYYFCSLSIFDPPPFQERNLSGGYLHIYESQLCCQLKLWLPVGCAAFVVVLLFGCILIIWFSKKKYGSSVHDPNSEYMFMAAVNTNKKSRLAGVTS


Assays:
[1] = biological target: T1, cynomolgus ICOS-Fc (homodimeric, bivalent) (cynomolgus monkey); assay: BLI
rat ICOS-Fc (rat) = biological target: T2, rat ICOS-Fc (rat); assay: BLI
[2] = biological target: T3, mouse ICOS (full length, on cells); assay: receptor availability assay, flow cytometry on blood T cells of dosed mice

binding [1] | binding (rat ICOS-Fc (rat)) | binding [2] | Binder
binds | binds |  | 36E10 (antibody, V domains shown, Armenian hamster monoclonal tested as IgG; also called hamster anti-ICOS 36E10) VH: EVQLVESGGGLVKPGGSLKLSCAASGFTFSDYWMDWVRQAPGKGLEWVGNIDEDGSITEYSPFVKGRFTISRDNVKNILYLQMNSVKSEDTATYYCTRWGRFAFDSWGQGTLVTVSS VL: DIVMTQSPSSLAVSPGDRVTINCKSSQSLLSGSFHYLTWYQQKTGQAPKLLIFYASTRHTGVPDRFMGSGSGTDFTLTINSFQTEDLGDYYCHHHYNAPPTFGPGTKLELR
binds | binds |  | 35A9 (antibody, V domains shown, Armenian hamster monoclonal tested as IgG; also called hamster anti-ICOS 35A9) VH: EVQLVESGGGLVKPGGSLKLSCAASGFTFSDYWMDWVRQAPGKGLEWVGNIDEDGSIAEYSPFVKGRFTISRDNVKNTLYLQMNSVKSEDTATYYCSRWGRFAFDSWGQGTLVTVSS VL: DIVMTQSPSSLAVSAGDRVTINCKSSQSLLSGSFNYLTWYQQKTGQAPKLLIFYASTRHTGVPDRFMGSGSGTDFTLTINSFQTEDLGDYYCHHHYNAPPTFGPGTKLELR
 |  | binds | 37A10S713-mIgG2a (antibody, V domains shown) VH: EVQLVESGGGLVQPGGSLRLSCAASGFTFSDYWMDWVRQAPGKGLVWVSNIDEDGSITEYSPFVKGRFTISRDNAKNTLYLQMNSLRAEDTAVYYCTRWGRFGFDSWGQGTLVTVSS VL: DIVMTQSPDSLAVSLGERATINCKSSQSLLSGSFNYLTWYQQKPGQPPKLLIFYASTRHTGVPDRFSGSGSGTDFTLTISSLQAEDVAVYYCHHHYNAPPTFGPGTKVDIK

The next lines start with the binder.

Binder | binding [1] | binding (rat ICOS-Fc (rat)) | binding [2]
7F12 (antibody, V domains shown, Armenian hamster monoclonal tested as IgG; also called hamster anti-ICOS 7F12) VH: EVQLVESGGGLVKPGGSLTLSCAASGFTFSDYWMDWVRQGPGKGLEWVGNIDEDGSTTYYAPFVKGRFTISRDNAKKTLYLQMNSVKSEDTATYYCTRWGRYAFDSWGQGTLVTVSS VL: DIVMTQSPSSLAVSPGDKVTINCKSSQSLLSGNYNYLAWYQQKTGQAPKLLIFYASTRHTGVPDRFMGSGSGTDFSLTINSFQTEDLGDYYCQHHYSTPPTFGPGTKLEIK | binds | binds | 
37A10 (antibody, V domains shown, Armenian hamster monoclonal tested as IgG; also called hamster anti-ICOS 37A10) VH: EVQLVESGGGLVKPGGSLKLSCAASGFTFSDYWMDWVRQAPGKGLEWVGNIDEDGSITEYSPFVKGRFTISRDNVKNTLYLQMNSVKSEDTATYYCTRWGRFGFDSWGQGTLVTVSS VL: DIVMTQSPSSLAVSAGDRVTINCKSSQSLLSGSFNYLTWYQQKTGQAPKLLIFYASTRHTGVPDRFMGSGSGTDFTLTINSFQTEDLGDYYCHHHYNAPPTFGPGTKLELR |  | binds | 
16G10 (antibody, V domains shown, Armenian hamster monoclonal tested as IgG; also called hamster anti-ICOS 16G10) VH: EVQLVESGGGLVKPGGSLKLSCAASGFTFSDYWMDWVRQAPGKGLEWVGNIDHDGNIINFAPSVKGRFTISRDNAKNTLYLQMNSVKSEDTATYYCARWGHYAFDSWGQGTLVTVSS VL: DIVMTQSPSSLAVSAGDKVTINCKSSQSLLSSGYNYLIWYQQKTGQAPKLLIFYASTRHTGVPDRFIGSGSGTDFTLTITSFQTEDLGDYYCQHHYSSPPTFGPGTKLEIK | binds | binds | 
